Experimental data reported in the supplement of paper PMC8728848.
Some of the results follow.

Legend:
Test in all cases: glycan array binding signal (z-score within array); higher = stronger binding
Settings in all cases: glycan notation: IUPAC condensed, linker removed
Fuc(a1-2)Gal = molecular target: Fuc(a1-2)Gal
Procedure, shortened: (§1)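 Glycan array data came from 3228 arrays in the Consortium for Functional Glycomics database, and only arrays with an available protein sequence were kept. Glycan names were put into IUPAC-condensed notation, and columns mapping to the same glycan were averaged. The binding signal is a within-array Z-score, averaged across arrays of one protein sequence run at different concentrations or buffers and across linkers. A negative Z-score can be read as non-binding.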

Fuc(a1-2)Gal(b1-3)GalNAc = molecular target: Fuc(a1-2)Gal(b1-3)GalNAc
Procedure, shortened: as §1

[1] = molecular target: Fuc(a1-2)Gal(b1-3)GalNAc(b1-3)Gal
Procedure, shortened: as §1

[2] = molecular target: Fuc(a1-2)Gal(b1-3)GalNAc(b1-3)Gal(a1-4)Gal(b1-4)Glc
Procedure, shortened: as §1

[3] = molecular target: Fuc(a1-2)Gal(b1-3)GalNAc(b1-4)[Neu5Ac(a2-3)]Gal(b1-4)Glc
Procedure, shortened: as §1

Fuc(a1-2)Gal(b1-3)GlcNAc = molecular target: Fuc(a1-2)Gal(b1-3)GlcNAc
Procedure, shortened: as §1

[4] = molecular target: Fuc(a1-2)Gal(b1-3)GlcNAc(b1-3)Gal(b1-4)Glc
Procedure, shortened: as §1

[5] = molecular target: Fuc(a1-2)Gal(b1-3)[Fuc(a1-4)]GlcNAc
Procedure, shortened: as §1

Fuc(a1-2)Gal(b1-4)Glc = molecular target: Fuc(a1-2)Gal(b1-4)Glc
Procedure, shortened: as §1

Fuc(a1-2)Gal(b1-4)Glc6S = molecular target: Fuc(a1-2)Gal(b1-4)Glc6S
Procedure, shortened: as §1

Fuc(a1-2)Gal(b1-4)GlcNAc = molecular target: Fuc(a1-2)Gal(b1-4)GlcNAc
Procedure, shortened: as §1

[6] = molecular target: Fuc(a1-2)Gal(b1-4)GlcNAc(b1-3)Gal(b1-4)GlcNAc
Procedure, shortened: as §1

[7] = molecular target: Fuc(a1-2)Gal(b1-4)GlcNAc(b1-3)Gal(b1-4)GlcNAc(b1-3)Gal(b1-4)GlcNAc
Procedure, shortened: as §1

[8] = molecular target: Fuc(a1-2)Gal(b1-4)GlcNAc6S
Procedure, shortened: as §1

[9] = molecular target: Fuc(a1-2)Gal(b1-4)[Fuc(a1-3)]GlcNAc
Procedure, shortened: as §1

[10] = molecular target: Fuc(a1-2)Gal(b1-4)[Fuc(a1-3)]GlcNAc(b1-3)Gal(b1-4)[Fuc(a1-3)]GlcNAc
Procedure, shortened: as §1

[11] = molecular target: Fuc(a1-2)Gal(b1-4)[Fuc(a1-3)]GlcNAc(b1-3)Gal(b1-4)[Fuc(a1-3)]GlcNAc(b1-3)Gal(b1-4)[Fuc(a1-3)]GlcNAc
Procedure, shortened: as §1

Fuc(a1-2)Gal6S(b1-4)Glc = molecular target: Fuc(a1-2)Gal6S(b1-4)Glc
Procedure, shortened: as §1

[12] = molecular target: Fuc(a1-2)Gal6S(b1-4)Glc6S
Procedure, shortened: as §1

[13] = molecular target: Fuc(a1-2)Gal6S(b1-4)GlcNAc
Procedure, shortened: as §1

Fuc(a1-2)[Gal(a1-3)]Gal = molecular target: Fuc(a1-2)[Gal(a1-3)]Gal
Procedure, shortened: as §1

[14] = molecular target: Fuc(a1-2)[Gal(a1-3)]Gal(b1-3)GlcNAc
Procedure, shortened: as §1

[15] = molecular target: Fuc(a1-2)[Gal(a1-3)]Gal(b1-4)Glc
Procedure, shortened: as §1

[16] = molecular target: Fuc(a1-2)[Gal(a1-3)]Gal(b1-4)GlcNAc
Procedure, shortened: as §1

[17] = molecular target: Fuc(a1-2)[Gal(a1-3)]Gal(b1-4)[Fuc(a1-3)]GlcNAc
Procedure, shortened: as §1

[18] = molecular target: Fuc(a1-2)[Gal(a1-4)]Gal(b1-4)GlcNAc
Procedure, shortened: as §1

[19] = molecular target: Fuc(a1-2)[GalNAc(a1-3)]Gal
Procedure, shortened: as §1

[20] = molecular target: Fuc(a1-2)[GalNAc(a1-3)]Gal(b1-3)GlcNAc
Procedure, shortened: as §1

[21] = molecular target: Fuc(a1-2)[GalNAc(a1-3)]Gal(b1-4)Glc
Procedure, shortened: as §1

[22] = molecular target: Fuc(a1-2)[GalNAc(a1-3)]Gal(b1-4)GlcNAc
Procedure, shortened: as §1

[23] = molecular target: Fuc(a1-2)[GalNAc(a1-3)]Gal(b1-4)[Fuc(a1-3)]GlcNAc
Procedure, shortened: as §1

[24] = molecular target: Fuc(a1-2)[GalNAc(a1-4)]Gal(b1-4)GlcNAc
Procedure, shortened: as §1

[25] = molecular target: Fuc(a1-2)[GalNAc(b1-3)]Gal
Procedure, shortened: as §1

Fuc(a1-3)GlcNAc = molecular target: Fuc(a1-3)GlcNAc
Procedure, shortened: as §1

[26] = molecular target: Fuc(a1-3)[Gal(b1-4)]Glc6S
Procedure, shortened: as §1

[27] = molecular target: Fuc(a1-3)[Gal(b1-4)]GlcNAc
Procedure, shortened: as §1

[28] = molecular target: Fuc(a1-3)[Gal(b1-4)]GlcNAc(b1-3)Gal(b1-3)[Fuc(a1-4)]GlcNAc
Procedure, shortened: as §1

[29] = molecular target: Fuc(a1-3)[Gal(b1-4)]GlcNAc(b1-4)Gal(b1-4)[Fuc(a1-3)]GlcNAc
Procedure, shortened: as §1

[30] = molecular target: Fuc(a1-3)[Gal(b1-4)]GlcNAc(b1-4)Gal(b1-4)[Fuc(a1-3)]GlcNAc(b1-4)Gal(b1-4)[Fuc(a1-3)]GlcNAc
Procedure, shortened: as §1

[31] = molecular target: Fuc(a1-3)[Gal(b1-4)]GlcNAc6S
Procedure, shortened: as §1

[32] = molecular target: Fuc(a1-3)[Gal3S(b1-4)]Glc6S
Procedure, shortened: as §1

[33] = molecular target: Fuc(a1-3)[Gal3S(b1-4)]GlcNAc
Procedure, shortened: as §1

[34] = molecular target: Fuc(a1-3)[Gal3S(b1-4)]GlcNAc6S
Procedure, shortened: as §1

[35] = molecular target: Fuc(a1-3)[GalNAc(b1-4)]GlcNAc
Procedure, shortened: as §1

Fuc(a1-4)GlcNAc = molecular target: Fuc(a1-4)GlcNAc
Procedure, shortened: as §1

Fuc(b1-3)GlcNAc = molecular target: Fuc(b1-3)GlcNAc
Procedure, shortened: as §1

Gal(a1-2)Gal = molecular target: Gal(a1-2)Gal
Procedure, shortened: as §1

Gal(a1-3)Gal = molecular target: Gal(a1-3)Gal
Procedure, shortened: as §1

Gal(a1-3)Gal(b1-3)GlcNAc = molecular target: Gal(a1-3)Gal(b1-3)GlcNAc
Procedure, shortened: as §1

Gal(a1-3)Gal(b1-4)Glc = molecular target: Gal(a1-3)Gal(b1-4)Glc
Procedure, shortened: as §1

Gal(a1-3)Gal(b1-4)GlcNAc = molecular target: Gal(a1-3)Gal(b1-4)GlcNAc
Procedure, shortened: as §1

[36] = molecular target: Gal(a1-3)Gal(b1-4)[Fuc(a1-3)]GlcNAc
Procedure, shortened: as §1

Gal(a1-3)GalNAc = molecular target: Gal(a1-3)GalNAc
Procedure, shortened: as §1

[37] = molecular target: Gal(a1-3)[Gal(a1-4)]Gal(b1-4)GlcNAc
Procedure, shortened: as §1

Gal(a1-4)Gal(b1-4)Glc = molecular target: Gal(a1-4)Gal(b1-4)Glc
Procedure, shortened: as §1

Gal(a1-4)Gal(b1-4)GlcNAc = molecular target: Gal(a1-4)Gal(b1-4)GlcNAc
Procedure, shortened: as §1

Gal(a1-4)GlcNAc = molecular target: Gal(a1-4)GlcNAc
Procedure, shortened: as §1

Gal(a1-6)Glc = molecular target: Gal(a1-6)Glc
Procedure, shortened: as §1

Gal(b1-2)Gal = molecular target: Gal(b1-2)Gal
Procedure, shortened: as §1

Gal(b1-3)Gal = molecular target: Gal(b1-3)Gal
Procedure, shortened: as §1

B1: M6PR (Bos taurus), P11456 (protein)
chain: MMSPLHSSWRTGLLLLLLFSVAVRESWQTEEKTCDLVGEKGKESEKELALLKRLTPLFNKSFESTVGQSPDMYSYVFRVCREAGNHSSGAGLVQINKSNGKETVVGRFNETQIFNGSNWIMLIYKGGDEYDNHCGREQRRAVVMISCNRHTLADNFN
glycan array binding signal (z-score) (Fuc(a1-2)Gal): -0.18
glycan array binding signal (z-score) (Fuc(a1-2)Gal(b1-3)GalNAc): 0.215
glycan array binding signal (z-score) [1]: 0.114
glycan array binding signal (z-score) [2]: 0.014
glycan array binding signal (z-score) [3]: 2.76
glycan array binding signal (z-score) (Fuc(a1-2)Gal(b1-3)GlcNAc): -0.189
glycan array binding signal (z-score) [4]: -0.429
glycan array binding signal (z-score) [5]: 0.201
glycan array binding signal (z-score) (Fuc(a1-2)Gal(b1-4)Glc): -0.153
glycan array binding signal (z-score) (Fuc(a1-2)Gal(b1-4)Glc6S): -0.679
glycan array binding signal (z-score) (Fuc(a1-2)Gal(b1-4)GlcNAc): 0.724
glycan array binding signal (z-score) [6]: 0.062
glycan array binding signal (z-score) [7]: 0.026
glycan array binding signal (z-score) [8]: -0.681
glycan array binding signal (z-score) [9]: 0.437
glycan array binding signal (z-score) [10]: -0.237
glycan array binding signal (z-score) [11]: 0.021
glycan array binding signal (z-score) (Fuc(a1-2)Gal6S(b1-4)Glc): -0.506
glycan array binding signal (z-score) [12]: -0.512
glycan array binding signal (z-score) [13]: -0.21
glycan array binding signal (z-score) (Fuc(a1-2)[Gal(a1-3)]Gal): -0.265
glycan array binding signal (z-score) [14]: -0.012
glycan array binding signal (z-score) [15]: 0.109
glycan array binding signal (z-score) [16]: 0.078
glycan array binding signal (z-score) [17]: 0.725
glycan array binding signal (z-score) [18]: 0.223
glycan array binding signal (z-score) [19]: -0.021
glycan array binding signal (z-score) [20]: 0.249
glycan array binding signal (z-score) [21]: -0.153
glycan array binding signal (z-score) [22]: 0.327
glycan array binding signal (z-score) [23]: 0.578
glycan array binding signal (z-score) [24]: -0.255
glycan array binding signal (z-score) [25]: 0.283
glycan array binding signal (z-score) (Fuc(a1-3)GlcNAc): -0.026
glycan array binding signal (z-score) [26]: -0.511
glycan array binding signal (z-score) [27]: -0.422
glycan array binding signal (z-score) [28]: -0.648
glycan array binding signal (z-score) [29]: -0.282
glycan array binding signal (z-score) [30]: -0.375
glycan array binding signal (z-score) [31]: -0.828
glycan array binding signal (z-score) [32]: -0.34
glycan array binding signal (z-score) [33]: -0.167
glycan array binding signal (z-score) [34]: -0.421
glycan array binding signal (z-score) [35]: -0.338
glycan array binding signal (z-score) (Fuc(a1-4)GlcNAc): -0.026
glycan array binding signal (z-score) (Fuc(b1-3)GlcNAc): 0.075
glycan array binding signal (z-score) (Gal(a1-2)Gal): 0.848
glycan array binding signal (z-score) (Gal(a1-3)Gal): 0.308
glycan array binding signal (z-score) (Gal(a1-3)Gal(b1-3)GlcNAc): 0.409
glycan array binding signal (z-score) (Gal(a1-3)Gal(b1-4)Glc): -0.13
glycan array binding signal (z-score) (Gal(a1-3)Gal(b1-4)GlcNAc): -0.036
glycan array binding signal (z-score) [36]: 0.296
glycan array binding signal (z-score) (Gal(a1-3)GalNAc): 0.8
glycan array binding signal (z-score) [37]: -0.029
glycan array binding signal (z-score) (Gal(a1-4)Gal(b1-4)Glc): 0.066
glycan array binding signal (z-score) (Gal(a1-4)Gal(b1-4)GlcNAc): -0.101
glycan array binding signal (z-score) (Gal(a1-4)GlcNAc): 0.561
glycan array binding signal (z-score) (Gal(a1-6)Glc): 0.436
glycan array binding signal (z-score) (Gal(b1-2)Gal): 0.315
glycan array binding signal (z-score) (Gal(b1-3)Gal): -0.131
